Reference: patent US7067500B2, “Betaines as adjuvants to susceptibility testing and antimicrobial therapy” (priority 1997, dated 2006)

Test system: Mycobacteria (acid fast bacilli: AFB)
Experiment: CB-18 Pilot Study: smear analysis of processed respiratory specimens
[1] = each processing method evaluated independently, smear± included

Structure (SMILES): CCCCCCCCCCCCCCCCCC[N+](C)(C)CCCC(=O)[O-] [CB-18, N-(3-carboxypropyl)-N,N-dimethyl-1-octadecanaminium, inner salt]
- increase in smear sensitivity (CB-18 relative to NaOH): approximately 58%
- specificity of smear analysis (analysis of Table 4, smear± without confirming culture not counted): 96.8%
- Smear: Sensitivity [1]: 62.9%
- Smear: Specificity [1]: 91.2%

Where a name gives a salt, the structure may show the parent alone.
